Measured values as given in PubChem BioAssay AID220 (DTP/NCI, 2004).
The list shows only some results of the screen, not a fair sample: it covers a few groups of compounds. Not every dose and run of a compound is shown. T/C gives the treated animals as a percentage of the vehicle group. Schedule codes are those of the source, taken here to give the interval after Q, in days (D) or hours (H), and the number of doses after X. Some entries show no survivor count and are marked so; the dose need not have been tolerated. Some entries were tested several times; their values stand side by side, smallest first.

Test system: CD8F1 mice, subcutaneous mammary adenocarcinoma, T/C%
Assay: NCI In Vivo Anticancer Drug Screen. Data for tumor model Mammary Adenocarcinoma CD8F1 (subcutaneous) in CD8F1
Settings: T/C endpoint: median tumor weight (est.), schedule: Q07DX005 (ip), evaluated on day 30, higher T/C = larger tumour
Description: The antitumor activity of compounds was measured in mice bearing transplantable tumors. Survival or tumor size were measured and the results are expressed as the measurement made in the treated group (T) divided by the measurement made in the vehicle treated control group (C). The tumor model used in this assay is Mammary Adenocarcinoma CD8F1 (subcutaneous) in CD8F1

[1] = dose: 0.5 mg/kg/injection, vehicle: saline
[2] = dose: 4.0 mg/kg/injection, vehicle: saline

## CC(=O)OCC12CC(O)C(C)=CC1OC1C(O)C(OC(C)=O)C2(C)C12CO2 (centres undefined)
dose: 0.31 mg/kg/injection, vehicle: saline
  T/C: 54 % of control [survivor count not shown]
dose: 0.62 mg/kg/injection, vehicle: saline
  T/C: 89 % of control [survivor count not shown]
dose: 1.25 mg/kg/injection, vehicle: saline
  T/C: 71 % of control [survivor count not shown]
dose: 2.5 mg/kg/injection, vehicle: saline
  T/C: 34 % of control [survivor count not shown]
dose: 5.0 mg/kg/injection, vehicle: saline
  T/C: 60 % of control [survivor count not shown]

## CC1=CC2OC3CC4OC(=O)/C=C/C=C/C(C(C)O)OCC(O)C(C)CC(=O)OCC2(CC1O)C4(C)C31CO1 (centres undefined)
dose: 0.15 mg/kg/injection, vehicle: Klucel (hydroxypropylcellulose) (HPC)
  T/C: 118 % of control [survivor count not shown]
dose: 0.31 mg/kg/injection, vehicle: Klucel (hydroxypropylcellulose) (HPC)
  T/C: 62 % of control [survivor count not shown]
dose: 0.62 mg/kg/injection, vehicle: Klucel (hydroxypropylcellulose) (HPC)
  T/C: 90 % of control [survivor count not shown]
dose: 1.25 mg/kg/injection, vehicle: Klucel (hydroxypropylcellulose) (HPC)
  T/C: 113 % of control [survivor count not shown]

## CC1=C[C@H]2O[C@@H]3[C@H](O)[C@@H](O)[C@](C)([C@@]2(CO)CC1)[C@@]31CO1
[1]
  T/C: 128 % of control [survivor count not shown]
dose: 1.0 mg/kg/injection, vehicle: saline
  T/C: 75 [survivor count not shown] and 113 % of control [survivor count not shown]
dose: 2.0 mg/kg/injection, vehicle: saline
  T/C: 93 [survivor count not shown] and 114 % of control [survivor count not shown]
[2]
  T/C: 84 [survivor count not shown] and 89 % of control [survivor count not shown]
dose: 8.0 mg/kg/injection, vehicle: saline
  T/C: 59 % of control [survivor count not shown]
dose: 16.0 mg/kg/injection, vehicle: saline
  T/C: 45 % of control [survivor count not shown]

## C[C@@H](O)[C@H]1/C=C/C=C\C(=O)O[C@@H]2C[C@H]3O[C@@H]4[C@@H]5OC5(C)CCC4(COC(=O)[C@H]4O[C@]4(C)[C@@H](O)CO1)[C@]2(C)[C@]31CO1 (some centres undefined)
dose: 2.5 mg/kg/injection, vehicle: saline + alcohol
  T/C: 130 % of control [survivor count not shown]
dose: 5.0 mg/kg/injection, vehicle: saline + alcohol
  T/C: 104 % of control [survivor count not shown]

## CC(=O)OCC12CCC(C)=CC1OC1C(O)C(O)C2(C)C12CO2 (centres undefined)
[1]
  T/C: 37 % of control [survivor count not shown]
[2]
  T/C: 13 % of control [survivor count not shown]
